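Cell assay of Leishmania donovani living inside macrophages; the read-out is not stated. Tested at 30 µM. Direction is inferred from retests: higher values go with stronger inhibition. About 69,000 compounds were tested under these conditions; 1.5% (about 1,000) showed 50% or more at least once.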

Results are given as percent effect. How 0% and 100% were set is not recorded. Most values in the screen are low, and negative values occur. Compounds were drawn at random from those tested, without regard to their results. Two or more numbers in one place are separate tests of the same structure; such repeats can differ widely.

| # | compound | effect |
|---|---|---|
| 1 | `CCNC(=O)[C@@H]1C[C@H](N)CN1Cc1ccc(-c2ccccc2C#N)o1` | -13.95% |
| 2 | `Cc1ccccc1-n1cnnc1SCC1CCCCO1` (centres undefined) | 31.53% |
| 3 | `O=C(CN1CC(c2nc(Cc3ccccc3)no2)C1)NCC1CCCO1.O=C(O)C(=O)O` (centres undefined) | 14.11% & 9.121% |
| 4 | `CC(C)c1noc(C2CC(=O)N(CCN(C)C)C2)n1` (centres undefined) | -0.009762% |
| 5 | `Cn1ncc2c1NC(=O)CC2c1ccc(Cl)cc1Cl` (centres undefined) | 16.68% |
| 6 | `COc1cccc(C2CCCN2Cc2nc3c(cnn3C)c(=O)[nH]2)c1` (centres undefined) | 14.44% |
| 7 | `NCCc1nc(N(Cc2cncs2)C2CC2)c2ccccc2n1` | -1.942% |
| 8 | `COc1cc(F)ccc1NC(=O)NC(C)C(=O)NC(C)(C)C` (centres undefined) | -23.45% |
| 9 | `CCOCCn1c(=O)[nH]c2cc(C(=O)N(C)Cc3cnn(C)c3)ccc21` | 10.3% |
| 10 | `Cc1nc(CN(C)C2CCCN(c3cccnn3)C2)no1` (centres undefined) | -9.202% |
| 11 | `CCN(C(=O)CCCOC)C(c1ccc(Cl)cc1)c1ccccn1` (centres undefined) | -17.97% |
| 12 | `CCn1cc(N2Cc3nc(N4CCC(O)CC4)ncc3C2=O)cn1` | -5.715% |
| 13 | `CC(=O)N[C@@H]1Cc2ccccc2[C@H]1Nc1cc(C2CC2)ncn1` | -22.28% |
| 14 | `NS(=O)(=O)CCNC(=O)c1ccc(OCc2ccccc2)nc1` | -15.59% |
| 15 | `CC1(C(=O)NCCc2ccc(F)cc2)CCOCC1` | -3.016% |
| 16 | `CNc1ccnc(N2C[C@@H](C)[C@](O)(C3CC3)C2)n1` | -5.033% |
| 17 | `CC(C)(C)c1n[nH]c(C2CN(C(=O)CCC3CC3)CCO2)n1` (centres undefined) | 6.439% |
| 18 | `CN(C(=O)c1ccc[nH]1)C1CCC(NC(=O)OC(C)(C)C)CC1` (centres undefined) | 16.25% |
| 19 | `Cc1cc(N2CCc3c(ncn3C)C2)nc(N)n1` | 46.72% |
| 20 | `CCCc1nc(CNC(=O)Cc2csc(C)n2)cs1` | 5.533% |
| 21 | `CC(C)OCCn1nnnc1Cc1ccc(Br)cc1` | 4.024% |
| 22 | `COc1cc(C(=O)N2CCCC(c3cc(C)[nH]n3)C2)ccc1C` (centres undefined) | -46.97% |
| 23 | `COC(C)c1cccc(NCc2ccsc2)c1` (centres undefined) | 16.5% |
| 24 | `[H][C@@]12CN(C(=O)c3ccco3)C[C@]1([H])C(=O)N(Cc1cccc(F)c1)C2` | 17.71% |
| 25 | `CCOC(=O)N1CCN(c2nc(NCCCO)c3ccccc3n2)CC1.Cl` | 37.38% |
| 26 | `CC(C)(C)NC(=O)Cn1nc(C2CC2)cc(C(F)(F)F)c1=O` | 12.9% |
| 27 | `COc1ccc(CN2CC(=O)N(c3ccc(C)cc3)CC2C)cc1O` (centres undefined) | -11.02% |
| 28 | `CCN1CCN(C)C2(CCN(Cc3cccc(C)n3)CC2)C1=O.O=C(O)C(F)(F)F.O=C(O)C(F)(F)F` | 16.54% |
| 29 | `CCc1cnc(NCC2OCCc3ccccc32)nc1` (centres undefined) | -32.02% |
| 30 | `O=C(Nc1ccccn1)N(CCO)Cc1ccsc1` | 10.14% |
| 31 | `N#Cc1c(N2CCCN(C3CCOCC3)CC2)nc2ccccn12` | 14.79% |
| 32 | `CC(C)c1ccc2c(c1)C1(CC(=O)Nc3[nH]ncc31)C(=O)N2C` (centres undefined) | 8.56% |
| 33 | `CCNC(=O)C1CCN(Cc2ccc(C(=O)Nc3cnns3)cc2)C1` (centres undefined) | 35.09% |
| 34 | `CCC(CC)N(Cc1ccc2c(c1)OCO2)C(=O)c1ccc(=O)n(C)c1` | 25.81% |
| 35 | `CC(C)(C)CN1CCCC2(CCN(C(=O)c3cn[nH]c3)C2)C1` (centres undefined) | -30.81% |
| 36 | `O=C(O)C(F)(F)F.O=C1CCCN1Cc1nnc2n1CCN(Cc1ccccn1)CC2` | -1.746% |
| 37 | `Cc1nc(N2CCCN(c3ncccn3)CC2)c2cnn(C)c2n1` | 4.247% |
| 38 | `O=C(O)C(F)(F)F.[H][C@@]12CCCO[C@]1([H])[C@H](NC(=O)c1cnn(C)c1)CN2Cc1ccc(F)cc1` | 4.822% |
| 39 | `CCOCC(=O)Nc1ccc(N2CCSCC2)cc1C` | 38.39% |
| 40 | `[H][C@@]12CC[C@H](Oc3cccc(F)c3)[C@]1([H])CN(C(=O)c1cccc(C)n1)C2` | 12.34% |
| 41 | `Cn1cccc1C(=O)N1CCn2cc(CNC(=O)CC3CC3)nc2C1` | 14.61% |
| 42 | `COCCNc1nc2c(c(NCc3cnc(C)c(C)c3)n1)CCNCC2` | 10.04% |
| 43 | `C[C@@H]1CN(c2ccc(Cl)cn2)C[C@@]1(O)C1CC1` | 13.08% |
| 44 | `O=C(O)C(F)(F)F.O=S(=O)(c1cccs1)N1Cc2nc(CN3CCCC3)oc2C1` | 25.33% |
| 45 | `Fc1cnc(N2CCCC3(CN(Cc4ccccc4)CCO3)C2)nc1.O=C(O)C(F)(F)F` (centres undefined) | -1.416% |
| 46 | `Cc1ccc(CNC(=O)NCCCO)cc1` | -5.752% |
| 47 | `c1cn(Cc2nnc(C3CCN(C4CCOCC4)CC3)n2C2CC2)cn1` | 2.843% |
| 48 | `COc1cc(C)c(CN2CCC3(CC2)[C@H](O)C[C@@H]3OCCN)cc1C` | -16.77% |
| 49 | `[H][C@@]12CS(=O)(=O)C[C@]1([H])N(Cc1ccc(OC)c(O)c1)CCN2CC1CC1` | 19.23% |
| 50 | `Cc1cc(C)c2[nH]c(C(=O)NCCN3CCNC3=O)c(C)c2c1` | -14.08% |
| 51 | `CC(C)C[C@H](N)c1nnc(SCC(N)=O)o1.Cl` | -1.192% |
| 52 | `O=C(O)C(F)(F)F.O=C(O)C(F)(F)F.c1cnc(N2CCC3(CCN(Cc4ccncc4)CC3)CC2)nc1` | 38.21% |
| 53 | `CCOCC(=O)NCC1CCN(Cc2ccsc2)CC1` | 29.12% |
| 54 | `CC(C)(CO)Nc1c(NCc2ccncc2)c(=O)c1=O` | 26.83% & 2.246% |
| 55 | `NC(=O)CCn1ccc(NC(=O)c2ccc(OCC3CC3)cc2)n1` | 17.99% |
| 56 | `COc1cc(CNC(=O)COC2CCCCC2)ccc1O` | -10.74% |
| 57 | `CCCS(=O)(=O)N1CCC2(CC1)CN(C(=O)N(C)C)c1ccccc12` | 20.13% |
| 58 | `CN1CC(=O)N(c2cccc(F)c2)CC12CCN(Cc1ccco1)C2` (centres undefined) | 21.54% & 8.55% |
| 59 | `Cc1occc1C(=O)N1CCC2(CC1)CN(Cc1nccs1)CCO2.O=C(O)C(F)(F)F` | -52.1% |
| 60 | `Cc1cnc(CN(C)C2CCN(Cc3nccn3C)C2)o1` (centres undefined) | 11.49% |
| 61 | `CCc1cnc(N)nc1NCc1ccc(OC)c(OC)c1` | -2.143% |
| 62 | `Nc1cc2c(nn1)CCN(C(=O)CC1CCCCC1)C2` | 25.14% |
| 63 | `Cc1nn(C)c(C)c1CN1CCCC1c1nccc(CN(C)C)n1` (centres undefined) | 3.97% |
| 64 | `NC(=O)CC1CCN(C(=O)CCOc2ccc(Cl)cc2)CC1` | 20.1% |
| 65 | `O=C(O)C(F)(F)F.[H][C@@]12CCN(Cc3ccc(C)o3)[C@@]1([H])CCC(=O)N2` | 22.11% |
| 66 | `CC(C)c1nc(C2CCCN(C(=O)CN3CCCNC3=O)C2)no1` (centres undefined) | 7.982% |
| 67 | `O=C(Cn1cnnn1)Nc1ccc(F)cc1OCC1CC1` | 37.12% |
| 68 | `CC(C)(C)c1cc(NC(=O)NCCc2nnc3n2CCC3)c(C#N)s1` | 11.07% |

5 of the entries, repeated:

For Cc1ccc(CNC(=O)NCCCO)cc1 the result was -5.752%.
For CC(C)(C)NC(=O)Cn1nc(C2CC2)cc(C(F)(F)F)c1=O the result was 12.9%.
For COc1cc(C)c(CN2CCC3(CC2)[C@H](O)C[C@@H]3OCCN)cc1C the result was -16.77%.
For CC(C)OCCn1nnnc1Cc1ccc(Br)cc1 the result was 4.024%.
For O=C(O)C(F)(F)F.O=C1CCCN1Cc1nnc2n1CCN(Cc1ccccn1)CC2 the result was -1.746%.

The values are deposited in ChEMBL (CHEMBL3988442, “University of Dundee, Small-Polar-MMV Screening Library” (2021)).